Measurements: the supplement of paper PMC8960247
Structures can show the parent of a compound that is named as a salt. This is a noisy data set.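 Viability of TSC2-lost, immortalized human renal angiomyolipoma cells bearing an empty vector was measured by luminescent ATP assay, normalized to each plate's vehicle-treated wells, in low-serum medium, where TSC2-rescued cells do not grow.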

Test system: 621-102 (TSC2-deficient)
Test: relative viability vs DMSO (fraction); higher = less cytotoxic
Details: serum: 0.1% FBS, 72 h

SMILES | relative viability (0.0128 nM) | relative viability (0.064 nM) | relative viability (0.32 nM) | relative viability (1.6 nM) | relative viability (8 nM) | relative viability (40 nM) | relative viability (200 nM) | relative viability (1000 nM) | relative viability (5000 nM)
CC(NC(C)(C)C)C(=O)c1cccc(Cl)c1 (stereo not drawn) [Amfebutamone HCl] | 0.73 | 0.766 | 0.781 | 0.717 | 0.768 | 0.692 | 0.728 | 0.634 | 0.645
O=S(=O)(c1cccc2cnccc12)N1CCCNCC1 [Fasudil (HA-1077) HCl] | 1.06 | 0.954 | 0.989 | 1.05 | 0.954 | 0.923 | 1.05 | 1.11 | 0.894
Cc1ccc(F)c(NC(=O)Nc2ccc(-c3cccc4[nH]nc(N)c34)cc2)c1 [ABT-869] | 0.717 | 0.691 | 0.581 | 0.646 | 0.606 | 0.63 | 0.502 | 0.495 | 0.0266
Nc1ccn([C@H]2CC[C@@H](CO)O2)c(=O)n1 [Zalcitabine] | 0.545 | 0.603 | 0.555 | 0.66 | 0.555 | 0.56 | 0.564 | 0.498 | 0.541
CC[C@@H]1C(=O)N(C)c2cnc(Nc3ccc(C(=O)N[C@H]4CC[C@H](N5CCN(CC6CC6)CC5)CC4)cc3OC)nc2N1C(C)C [BI 6727] | 0.706 | 0.695 | 0.747 | 0.702 | 0.673 | 0.0558 | 0.0271 | 0.0476 | 0.00974
N#Cc1ccc(C(c2ccc(C#N)cc2)n2cncn2)cc1 [Letrozole] | 0.887 | 0.875 | 0.775 | 0.752 | 1.03 | 0.747 | 0.729 | 0.555 | 0.612
CN1[C@@H]2C[C@@H](OC(=O)[C@H](CO)c3ccccc3)C[C@H]1[C@@H]1O[C@@H]12 [Scopolamine HBr] | 0.096 | 0.364 | 0.665 | 0.785 | 0.505 | 0.653 | 0.753 | 0.892 | 0.608
NCCCC(O)(P(=O)(O)O)P(=O)(O)O [Alendronate] | 0.571 | 0.478 | 0.566 | 0.567 | 0.629 | 0.763 | 0.571 | 0.293 | 0.0218
CC(C)(Cc1ccc2ccccc2c1)NC[C@@H](O)COc1cccc(Cl)c1C#N [NPS-2143] | 1.01 | 1.19 | 1.08 | 0.905 | 0.684 | 0.691 | 0.747 | 0.0769 | 0.0116
c1ccc2c(CC3=NCCN3)cccc2c1 [Naphazoline HCl] | 0.769 | 0.856 | 0.863 | 0.792 | 0.814 | 0.775 | 0.836 | 0.8 | 0.79
O=C1NC(=O)/C(=C/c2ccc3nccc(-c4ccncc4)c3c2)S1 | 0.846 | 0.855 | 0.878 | 0.917 | 0.804 | 0.859 | 0.842 | 0.775 | 0.334
CCCCN1CCCCC1C(=O)Nc1c(C)cccc1C (stereo not drawn) [Bupivacaine HCl] | 0.779 | 0.866 | 0.908 | 0.88 | 0.919 | 0.74 | 0.655 | 0.658 | 0.327
Cc1[nH]nc2ccc(-c3cncc(OC[C@@H](N)Cc4ccccc4)c3)cc12 | 0.849 | 0.867 | 0.866 | 0.807 | 0.739 | 0.73 | 0.562 | 0.132 | 0.0137
Fc1cc(-c2cccc3ncc(-c4cnn(C5CCNCC5)c4)nc23)cc(F)c1CN1CCOCC1 [NVP-BSK805 dihydrochloride] | 0.806 | 0.836 | 0.774 | 0.884 | 0.82 | 0.831 | 0.787 | 0.667 | 0.0911
COc1cc2c(N3CCN(C(=O)Nc4ccc(OC(C)C)cc4)CC3)ncnc2cc1OCCCN1CCCCC1 [Tandutinib (MLN518)] | 0.849 | 0.807 | 0.86 | 0.869 | 0.841 | 0.813 | 0.823 | 0.67 | 0.168
CN1CCN(c2c(F)cc3c(=O)c(C(=O)O)cn(CCF)c3c2F)CC1 [Fleroxacin] | 0.958 | 0.358 | 0.502 | 0.841 | 0.292 | 0.132 | 0.166 | 0.189 | 0.562
CC(C)(C#N)c1cc(Cn2cncn2)cc(C(C)(C)C#N)c1 [Anastrozole] | 0.854 | 0.901 | 0.879 | 0.848 | 0.79 | 0.763 | 0.867 | 0.727 | 0.758
O=C(O)/C=C/c1ccc(Cn2ccnc2)cc1 [Ozagrel] | 0.839 | 0.875 | 0.872 | 0.862 | 0.819 | 0.746 | 0.744 | 0.681 | 0.611
CCNC(=O)c1cc2c(-c3cc(OCCN4CCCC4)c(Cl)cc3Cl)nc(N)nc2s1 [NVP-BEP800] | 0.879 | 0.876 | 0.751 | 0.75 | 0.723 | 0.644 | 0.375 | 0.085 | 0.0285
COc1cc2nc(N3CCN(C(=O)C4COc5ccccc5O4)CC3)nc(N)c2cc1OC (stereo not drawn) [Doxazosin Mesylate] | 0.922 | 0.933 | 0.865 | 0.848 | 0.885 | 0.828 | 0.799 | 0.743 | 0.604
COC1=CC(c2cc3ccccc3[nH]2)=N/C1=C\c1[nH]c(C)cc1C [Obatoclax Mesylate] | 0.865 | 0.777 | 0.366 | 0.8 | 0.74 | 0.521 | 0.0436 | 0.0112 | 0.0124
N=C(N)NC(=N)NCCc1ccccc1 [Phenformin HCl] | 0.495 | 0.688 | 0.687 | 0.807 | 0.687 | 0.822 | 0.768 | 0.552 | 0.643
COC(=O)[C@H](c1ccccc1Cl)N1CCc2sccc2C1 [Clopidogrel] | 0.725 | 0.613 | 0.556 | 0.57 | 0.563 | 0.53 | 0.464 | 0.502 | 0.594
CC(C)(C)c1cc(NC(=O)Nc2ccc(-c3cn4c(n3)sc3cc(OCCN5CCOCC5)ccc34)cc2)no1 [AC-220] | 0.935 | 0.909 | 1.04 | 1.15 | 1.01 | 1.08 | 0.802 | 0.831 | 0.895

No new results follow: 2 of the compounds above.
SMILES | relative viability (0.0128 nM) | relative viability (0.064 nM) | relative viability (0.32 nM) | relative viability (1.6 nM) | relative viability (8 nM) | relative viability (40 nM) | relative viability (200 nM) | relative viability (1000 nM) | relative viability (5000 nM)
N#Cc1ccc(C(c2ccc(C#N)cc2)n2cncn2)cc1 [Letrozole] | 0.887 | 0.875 | 0.775 | 0.752 | 1.03 | 0.747 | 0.729 | 0.555 | 0.612
CN1[C@@H]2C[C@@H](OC(=O)[C@H](CO)c3ccccc3)C[C@H]1[C@@H]1O[C@@H]12 [Scopolamine HBr] | 0.096 | 0.364 | 0.665 | 0.785 | 0.505 | 0.653 | 0.753 | 0.892 | 0.608

Remaining list, next part.

SMILES | relative viability (0.0128 nM) | relative viability (0.064 nM) | relative viability (0.32 nM) | relative viability (1.6 nM) | relative viability (8 nM) | relative viability (40 nM) | relative viability (200 nM) | relative viability (1000 nM) | relative viability (5000 nM)
COc1cc2c(cc1OC)C(=O)C(CC1CCN(Cc3ccccc3)CC1)C2 (stereo not drawn) [Donepezil HCl] | 0.722 | 0.78 | 0.747 | 0.721 | 0.702 | 0.738 | 0.78 | 0.767 | 0.667
COc1cc2nccc(Oc3ccc(NC(=O)Nc4cc(C)on4)c(Cl)c3)c2cc1OC [AV-951] | 0.722 | 0.779 | 0.737 | 0.677 | 0.772 | 0.754 | 0.667 | 0.408 | 0.00725
Cn1cnc2c(F)c(Nc3ccc(Br)cc3Cl)c(C(=O)NOCCO)cc21 [AZD6244] | 1.01 | 1.02 | 1.09 | 0.91 | 0.943 | 0.842 | 0.683 | 0.446 | 0.0096
CCN1CCCC1CNC(=O)c1cc(S(=O)(=O)CC)c(N)cc1OC (stereo not drawn) [Amisulpride] | 0.64 | 0.667 | 0.689 | 0.732 | 0.775 | 0.75 | 0.79 | 0.612 | 0.545
O=C1NC(=O)C(c2ccccc2)(c2ccccc2)N1 [Phenytoin] | 0.527 | 0.798 | 0.841 | 0.735 | 0.611 | 0.748 | 0.665 | 0.828 | 0.583
COc1ccc2c3n(c(=NC(=O)c4cccnc4)nc2c1OC)CCN3 [PIK-90] | 0.68 | 0.764 | 0.908 | 0.952 | 0.784 | 0.62 | 0.711 | 0.724 | 0.561
CN1CCN(CCOc2cc(OC3CCOCC3)c3c(Nc4c(Cl)ccc5c4OCO5)ncnc3c2)CC1 [AZD0530] | 0.956 | 0.949 | 0.925 | 0.846 | 0.704 | 0.69 | 0.832 | 0.733 | 0.464
CCCS(=O)(=O)Nc1ccc(F)c(C(=O)c2c[nH]c3ncc(Cl)cc23)c1F [PLX-4720] | 1.39 | 1.47 | 1.38 | 0.752 | 0.534 | 0.735 | 0.874 | 1.02 | 0.445
Nc1nccc(Oc2ccc(NC(=O)c3c[nH]cc(-c4ccc(F)cc4)c3=O)cc2F)c1Cl | 0.906 | 0.921 | 0.837 | 0.787 | 0.803 | 0.859 | 0.809 | 0.635 | 0.0112
CN(C)Cc1ccc(-c2nc3cccc4c3n2CCNC4=O)cc1 | 0.975 | 0.901 | 0.827 | 0.806 | 0.702 | 0.777 | 0.804 | 0.773 | 0.624
CNC(=O)c1ccccc1Sc1ccc2c(/C=C/c3ccccn3)n[nH]c2c1 [Axitinib] | 0.938 | 0.873 | 0.807 | 0.894 | 0.853 | 0.906 | 0.821 | 0.14 | 0.0268
CC(C)c1cnn2c(NCc3ccccc3)cc(NCCCCCCN)nc12 [BS-181 hydrochloride] | 0.899 | 0.919 | 0.829 | 0.883 | 0.791 | 0.769 | 0.724 | 0.445 | 0.00989
COc1ccc(S(=O)(=O)Nc2cccnc2Nc2ccc(O)cc2)cc1 [ABT-751] | 0.798 | 0.823 | 0.821 | 0.783 | 0.713 | 0.7 | 0.746 | 0.0395 | 0.0511
COC(=O)Nc1ccc(-c2nc(N3CCOCC3)c3cnn(C4CCN(Cc5cccnc5)CC4)c3n2)cc1 [WYE-687] | 0.0918 | 0.439 | 0.787 | 0.773 | 0.701 | 0.857 | 0.918 | 0.778 | 0.303
CCCCC(=O)N(Cc1ccc(-c2ccccc2-c2nnn[nH]2)cc1)[C@H](C(=O)O)C(C)C [Valsartan] | 0.96 | 0.898 | 0.865 | 0.877 | 0.916 | 0.79 | 0.82 | 0.768 | 0.786
CC(=O)O[C@H]1C(=O)[C@@]2(C)[C@H]([C@H](OC(=O)c3ccccc3)[C@]3(O)C[C@H](OC(=O)[C@H](O)[C@@H](NC(=O)c4ccccc4)c4ccccc4)C(C)=C1C3(C)C)[C@]1(OC(C)=O)CO[C@@H]1C[C@@H]2O [Paclitaxel] | 0.96 | 0.959 | 0.878 | 0.626 | 0.0659 | 0.0335 | 0.0342 | 0.0411 | 0.0376
C[C@]12CC[C@H]3[C@@H](CC[C@@]45O[C@@H]4C(O)=C(C#N)C[C@]35C)[C@@H]1CC[C@@H]2O [Trilostane] | 0.857 | 0.864 | 0.849 | 0.886 | 0.874 | 0.812 | 0.848 | 0.81 | 0.736
NC(=O)c1ncn([C@@H]2O[C@H](CO)[C@@H](O)[C@H]2O)c1O [Mizoribine] | 0.722 | 0.79 | 0.858 | 0.903 | 0.841 | 0.789 | 0.817 | 0.427 | 0.868
CN1[C@@H]2CC[C@H]1C[C@@H](OC(=O)c1c[nH]c3ccccc13)C2 [Tropisetron] | 0.768 | 0.714 | 0.742 | 0.729 | 0.655 | 0.663 | 0.674 | 0.798 | 0.565
Cn1cc(CNCC2CCN(c3ncc(C(=O)NO)cn3)CC2)c2ccccc21 | 0.619 | 0.854 | 0.79 | 0.795 | 0.449 | 0.0917 | 0.0131 | 0.0136 | 0.0109
CCOc1ccccc1OCCN[C@H](C)Cc1ccc(OC)c(S(N)(=O)=O)c1 [Tamsulosin] | 0.675 | 0.77 | 0.787 | 0.826 | 0.827 | 0.798 | 0.854 | 0.814 | 0.763
CC(C)C[C@@H](C(=O)N[C@H](C(=O)OC1CCCC1)c1ccccc1)[C@H](O)C(=O)NO [CHR-2797] | 0.815 | 0.849 | 0.742 | 0.79 | 0.611 | 0.551 | 0.403 | 0.263 | 0.254
N=C(N)NC(=N)N1CCOCC1 [Moroxydine HCl] | 1.09 | 0.354 | 0.427 | 1.09 | 0.403 | 0.187 | 0.577 | 0.555 | 0.614
